Reference: PubChem BioAssay AID1508597 (Cure First, 2020)
Shown is an unselected part of the about 2,100 reagents, in one setting of the screen. 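Calls flag viability under 80% in either arm, not effects specific to rucaparib; the reference for percent is not stated.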 Some reagents were tested in more than one well and are listed for each. Not stated in the record: the 100% reference.

Purpose: 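Genes whose silencing sensitises or protects ovarian cancer cells against rucaparib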 (primary screen)
Cell system: human ovarian carcinoma lines grown from tumours: OCI-P5x (papillary serous) and OCI-C5x (clear cell)
Reagent: siRNA pool against human genes, 1.25 pmol siRNA per well
Time to read-out: 72 h or 96 h, depending on the cell culture
Conditions: rucaparib 20 µM (about IC30) or vehicle, present until read-out
Rucaparib or vehicle: Rucaparib
Cell line: OCI-P5x (serous)
Detection: 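Luminescent ATP-based viability assay read 72 or 96 h after transfection, depending on culture, given as normalised percent viability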
Direction: viability, normalised: higher = more viable cells remaining
Call rule: 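a well counts as a hit if its normalised viability is under 80 percent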
Calls: active = viability under 80%; inactive = viability 80% or more

| gene symbol | technical replicate | viability, normalised (%) | activity call |
| --- | --- | --- | --- |
| RP2 | 1 | 40.8 | active |
| RP2 | 2 | 45.9 | active |
| RP2 | 3 | 54.8 | active |
| GAD1 | 1 | 60.9 | active |
| GAD1 | 2 | 56.6 | active |
| GAD1 | 3 | 59.9 | active |
| SIRT2 | 1 | 38.7 | active |
| SIRT2 | 2 | 51.5 | active |
| SIRT2 | 3 | 47.5 | active |
| BMPR2 | 1 | 83 | inactive |
| BMPR2 | 2 | 87.4 | inactive |
| BMPR2 | 3 | 78.4 | active |
| PCDHB4 | 1 | 47.5 | active |
| PCDHB4 | 2 | 58.3 | active |
| PCDHB4 | 3 | 55.3 | active |
| IFNAR1 | 1 | 36.7 | active |
| IFNAR1 | 2 | 37.4 | active |
| IFNAR1 | 3 | 34.1 | active |
| MUSK | 1 | 97.2 | inactive |
| MUSK | 2 | 86.5 | inactive |
| MUSK | 3 | 92.8 | inactive |
| SCML2 | 1 | 58.6 | active |
| SCML2 | 2 | 48 | active |
| SCML2 | 3 | 56.8 | active |
| ACE | 1 | 41.2 | active |
| ACE | 2 | 59.3 | active |
| ACE | 3 | 29.8 | active |
| SLC16A2 | 1 | 36.9 | active |
| SLC16A2 | 2 | 39.2 | active |
| SLC16A2 | 3 | 43.4 | active |
| PAXIP1 | 1 | 93.7 | inactive |
| PAXIP1 | 2 | 76.6 | active |
| PAXIP1 | 3 | 86.6 | inactive |
| HDGFL1 | 1 | 64.9 | active |
| HDGFL1 | 2 | 66.5 | active |
| HDGFL1 | 3 | 63.7 | active |
| FANCM | 1 | 67.2 | active |
| FANCM | 1 | 82 | inactive |
| FANCM | 2 | 69.6 | active |
| FANCM | 2 | 82.2 | inactive |
| FANCM | 3 | 79.8 | active |
| FANCM | 3 | 71.5 | active |
| SETD1B | 1 | 48 | active |
| SETD1B | 2 | 56.4 | active |
| SETD1B | 3 | 55.1 | active |
| PRKCQ | 1 | 85.8 | inactive |
| PRKCQ | 2 | 93.2 | inactive |
| PRKCQ | 3 | 81.4 | inactive |
| ATOH1 | 1 | 81.6 | inactive |
| ATOH1 | 2 | 93.1 | inactive |
| ATOH1 | 3 | 87.8 | inactive |
| ASH1L | 1 | 76.3 | active |
| ASH1L | 2 | 63.8 | active |
| ASH1L | 3 | 47.1 | active |
| PIK3C2B | 1 | 114 | inactive |
| PIK3C2B | 2 | 141 | inactive |
| PIK3C2B | 3 | 107 | inactive |
